Paper PMC5730846
Results are given in words; binding and its absence hold for the method and conditions named. In cells and extracts the contact can be indirect. For some assays here: Binding calls can cover weak binding; strength is not graded here. For some assays here: Sequences can lack the tags named with a protein. Blank lines part the entries; values can stand above or below the binder they belong to.

Columns and labels:
[1] = biological target: FLAG-tagged Hsp90α C-domain (human); test: co-IP; FLAG-tagged protein transiently expressed in HEK293, immunoprecipitated with anti-FLAG M2 affinity gel; endogenous partners by immunoblot; empty vector control
[2] = biological target: FLAG-tagged Hsp90α M-domain (human); test: as above
[3] = biological target: Hsp90α-FLAG with MEEVD deleted (α∆TPR) (human); test: as above
[4] = biological target: Hsp90β-FLAG with MEEVD deleted (β∆TPR); test: as above
[5] = biological target: FLAG-tagged Hsp90α M-domain (human); test: co-IP; FLAG-tagged protein co-expressed with HA-tagged Tsc1-D in HEK293; anti-FLAG immunoprecipitation; immunoblot

binding [1]: binds | binding [2]: binds | binding [3]: no binding | binding [4]: no binding
B1: Tsc1 (hamartin) (protein, UniProt Q92574 1-1164)
chain: MAQQANVGELLAMLDSPMLGVRDDVTAVFKENLNSDRGPMLVNTLVDYYLETSSQPALHILTTLQEPHDKHLLDRINEYVGKAATRLSILSLLGHVIRLQPSWKHKLSQAPLLPSLLKCLKMDTDVVVLTTGVLVLITMLPMIPQSGKQHLLDFFDIFGRLSSWCLKKPGHVAEVYLVHLHASVYALFHRLYGMYPCNFVSFLRSHYSMKENLETFEEVVKPMMEHVRIHPELVTGSKDHELDPRRWKRLETHDVVIECAKISLDPTEASYEDGYSVSHQISARFPHRSADVTTSPYADTQNSYGCATSTPYSTSRLMLLNMPGQLPQTLSSPSTRLITEPPQATLWSPSMVCGMTTPPTSPGNVPPDLSHPYSKVFGTTAGGKGTPLGTPATSPPPAPLCHSDDYVHISLPQATVTPPRKEERMDSARPCLHRQHHLLNDRGSEEPPGSKGSVTLSDLPGFLGDLASEEDSIEKDKEEAAISRELSEITTAEAEPVVPRGGFDSPFYRDSLPGSQRKTHSAASSSQGASVNPEPLHSSLDKLGPDTPKQAFTPIDLPCGSADESPAGDRECQTSLETSIFTPSPCKIPPPTRVGFGSGQPPPYDHLFEVALPKTAHHFVIRKTEELLKKAKGNTEEDGVPSTSPMEVLDRLIQQGADAHSKELNKLPLPSKSVDWTHFGGSPPSDEIRTLRDQLLLLHNQLLYERFKRQQHALRNRRLLRKVIKAAALEEHNAAMKDQLKLQEKDIQMWKVSLQKEQARYNQLQEQRDTMVTKLHSQIRQLQHDREEFYNQSQELQTKLEDCRNMIAELRIELKKANNKVCHTELLLSQVSQKLSNSESVQQQMEFLNRQLLVLGEVNELYLEQLQNKHSDTTKEVEMMKAAYRKELEKNRSHVLQQTQRLDTSQKRILELESHLAKKDHLLLEQKKYLEDVKLQARGQLQAAESRYEAQKRITQVFELEILDLYGRLEKDGLLKKLEEEKAEAAEAAEERLDCCNDGCSDSMVGHNEEASGHNGETKTPRPSSARGSSGSRGGGGSSSSSSELSTPEKPPHQRAGPFSSRWETTMGEASASIPTTVGSLPSSKSFLGMKARELFRNKSESQCDEDGMTSSLSESLKTELGKDLGVEAKIPLNLDGPHPSPPTPDSVGQLHIMDYNETHHEHS

binding [5]: binds
B2: Tsc1-D-HA (domain or fragment, UniProt Q92574 998-1164)
chain: DGCSDSMVGHNEEASGHNGETKTPRPSSARGSSGSRGGGGSSSSSSELSTPEKPPHQRAGPFSSRWETTMGEASASIPTTVGSLPSSKSFLGMKARELFRNKSESQCDEDGMTSSLSESLKTELGKDLGVEAKIPLNLDGPHPSPPTPDSVGQLHIMDYNETHHEHS
